Results are given in words; binding and its absence hold for the method and conditions named. A result given as binding can be weak or reduced; the word gives no strength.

The target of this test is Cda4HA (C-terminally HA-tagged secreted Cda4) (Ustilago maydis). Kind of test: pull-down; both purified.

In the case of “maize antifungal protein 1 (AFP1), AFP1-His (from UniProt B4FUR2)”, the binding result is recorded as “binds”.

(Values after publication PMC10128019.)
